{"source": "patent US20090104257A1", "about": "(priority 2007, published 2009)", "tested_on": "S pneumoniae (ATCC 6303)", "test": "MIC of vancomycin", "assay_type": "cell-based", "data": [{"smiles": "CN[C@H](CC(C)C)C(=O)N[C@H]1C(=O)N[C@@H](CC(N)=O)C(=O)N[C@H]2C(=O)N[C@H]3C(=O)N[C@H](C(=O)N[C@H](C(=O)O)c4cc(O)cc(O)c4-c4cc3ccc4O)[C@H](O)c3ccc(c(Cl)c3)Oc3cc2cc(c3O[C@@H]2O[C@H](CO)[C@@H](O)[C@H](O)[C@H]2O[C@H]2C[C@](C)(N)[C@H](O)[C@H](C)O2)Oc2ccc(cc2Cl)[C@H]1O", "note": "[Vancomycin, vancomycin]", "values": [{"measurement": "MIC", "value": 0.25, "unit": "mg/L"}]}]}
